The values that follow come from the supplement of paper PMC4604168 (melanoma cell lines).

Each structure is given as a SMILES string. The list shows a part of the results. Single values are uncertain, as repeats are few or missing.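 Imaging used 1,536-well plates; nuclei positive for cleaved PARP by antibody were divided by total DNA-stained nuclei to yield the apoptosis fraction. Doses for screening kept most cells viable, and cell lines differ markedly in resting and induced cleaved-PARP levels.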

This test has as its system COLO792. Nature of the test: cleaved PARP positive nuclei fraction relative to DMSO control; melanoma cells; higher = more apoptosis. The note with it: library dose: low library concentration; 72 h.
As to `C[C@@H](N)c1ccc(C(=O)Nc2ccnc3[nH]ccc23)cc1` + CC(C)C[C@H](NC(=O)[C@H](Cc1ccccc1)NC(=O)c1cnccn1)B(O)O [Bortezomib] (first compound 0.4 µM, partner dose 0.001 µM), the “cleaved PARP positive nuclei fraction” value amounted to 160%.
Consider `C[C@]1(O)C[C@@H](c2nc(-c3ccc4ccc(-c5ccccc5)nc4c3)c3c(N)nccn32)C1` + CS(=O)(=O)CCNCc1ccc(-c2ccc3ncnc(Nc4ccc(OCc5cccc(F)c5)c(Cl)c4)c3c2)o1 [lapatinib] (first compound 0.4 µM, partner dose 0.8 µM), for which the “cleaved PARP positive nuclei fraction” value was found to be 118%.
On to `Cn1sc(=O)n(Cc2ccccc2)c1=O` + CNC(=O)c1cc(Oc2ccc(NC(=O)Nc3ccc(Cl)c(C(F)(F)F)c3)cc2)ccn1 [sorafenib] (first compound 0.4 µM, partner dose 0.4 µM), for which the “cleaved PARP positive nuclei fraction” value was 77%.
Take `CN(c1ncccc1CNc1nc(Nc2ccc3c(c2)CC(=O)N3)ncc1C(F)(F)F)S(C)(=O)=O` + CS(=O)(=O)CCNCc1ccc(-c2ccc3ncnc(Nc4ccc(OCc5cccc(F)c5)c(Cl)c4)c3c2)o1 [lapatinib] (first compound 0.08 µM, partner dose 0.8 µM): the “cleaved PARP positive nuclei fraction” value was 104%.
In the case of `CCCCCCCCc1ccc(CCC(N)(CO)CO)cc1` [fingolimod] + CC(=O)O[C@@]12CO[C@@H]1C[C@H](O)[C@@]1(C)C(=O)[C@H](O)C3=C(C)[C@@H](OC(=O)[C@H](O)[C@@H](NC(=O)OC(C)(C)C)c4ccccc4)C[C@@](O)([C@@H](OC(=O)c4ccccc4)[C@H]21)C3(C)C [Docetaxel] (first compound 2 µM, partner dose 0.0001 µM), the “cleaved PARP positive nuclei fraction” value came out at 391%.
For `CCCCCCCCc1ccc(CCC(N)(CO)CO)cc1` [fingolimod] + COCC[n+]1c2c(n(Cc3cnccn3)c1C)C(=O)c1ccccc1C2=O [YM155] (first compound 2 µM, partner dose 0.0004 µM) the value was 55%; for `NC1(c2ccc(-c3nc4ccn5c(=O)[nH]nc5c4cc3-c3ccccc3)cc2)CCC1` + C[C@@H](Oc1cc(-c2cnn(C3CCNCC3)c2)cnc1N)c1c(Cl)ccc(F)c1Cl [Crizotinib] (first compound 0.4 µM, partner dose 0.2 µM), 143%.
Next, `C[C@]1(O)C[C@@H](c2nc(-c3ccc4ccc(-c5ccccc5)nc4c3)c3c(N)nccn32)C1` + Cc1cc(Nc2cc(N3CCN(C)CC3)nc(/C=C/c3ccccc3)n2)n[nH]1 [ENMD2076] (first compound 0.4 µM, partner dose 0.04 µM): 98.4%; `Cn1sc(=O)n(Cc2ccccc2)c1=O` + C[C@@H](Oc1cc(-c2cnn(C3CCNCC3)c2)cnc1N)c1c(Cl)ccc(F)c1Cl [Crizotinib] (first compound 0.4 µM, partner dose 0.2 µM): 143%; `NC(=O)c1ccc(N(C(N)=O)c2c(F)cccc2F)nc1-c1ccc(F)cc1F` + CCCCCCCCc1ccc(CCC(N)(CO)CO)cc1 [fingolimod] (first compound 0.4 µM, partner dose 2 µM): 162%.
For `NC1(c2ccc(-c3nc4ccn5c(=O)[nH]nc5c4cc3-c3ccccc3)cc2)CCC1` + CO[C@H]1C[C@@H]2CC[C@@H](C)[C@@](O)(O2)C(=O)C(=O)N2CCCC[C@H]2C(=O)O[C@H]([C@H](C)C[C@@H]2CC[C@@H](OCCO)[C@H](OC)C2)CC(=O)[C@H](C)/C=C(\C)[C@@H](O)[C@@H](OC)C(=O)[C@H](C)C[C@H](C)/C=C/C=C/C=C/1C [everolimus] (first compound 0.4 µM, partner dose 0.02 µM) the value was 491%.
